# Assay results: the supplement of paper PMC10849652
# Protein sequences, listed by entry. Tags and fused reporters are not part of them. Lines headed by an entry give the natural chain unless they say otherwise; changes in a name come on top.
# UniProt P04844: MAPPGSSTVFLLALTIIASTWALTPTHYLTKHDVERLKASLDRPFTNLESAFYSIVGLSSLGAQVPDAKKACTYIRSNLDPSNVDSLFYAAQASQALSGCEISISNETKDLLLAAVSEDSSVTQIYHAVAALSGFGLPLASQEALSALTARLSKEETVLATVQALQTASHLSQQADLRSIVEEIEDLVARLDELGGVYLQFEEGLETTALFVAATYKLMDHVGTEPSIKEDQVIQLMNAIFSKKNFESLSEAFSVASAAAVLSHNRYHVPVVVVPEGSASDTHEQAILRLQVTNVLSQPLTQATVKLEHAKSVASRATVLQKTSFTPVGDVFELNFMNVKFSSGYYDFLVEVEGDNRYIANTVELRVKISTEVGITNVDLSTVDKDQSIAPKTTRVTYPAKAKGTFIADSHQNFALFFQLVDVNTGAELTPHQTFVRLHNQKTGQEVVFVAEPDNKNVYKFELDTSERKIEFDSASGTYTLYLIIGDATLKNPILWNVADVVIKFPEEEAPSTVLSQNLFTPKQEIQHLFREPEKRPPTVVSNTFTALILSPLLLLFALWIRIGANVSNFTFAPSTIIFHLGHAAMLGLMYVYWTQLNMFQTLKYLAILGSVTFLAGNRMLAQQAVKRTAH
# UniProt P27694, whole entry, looked up: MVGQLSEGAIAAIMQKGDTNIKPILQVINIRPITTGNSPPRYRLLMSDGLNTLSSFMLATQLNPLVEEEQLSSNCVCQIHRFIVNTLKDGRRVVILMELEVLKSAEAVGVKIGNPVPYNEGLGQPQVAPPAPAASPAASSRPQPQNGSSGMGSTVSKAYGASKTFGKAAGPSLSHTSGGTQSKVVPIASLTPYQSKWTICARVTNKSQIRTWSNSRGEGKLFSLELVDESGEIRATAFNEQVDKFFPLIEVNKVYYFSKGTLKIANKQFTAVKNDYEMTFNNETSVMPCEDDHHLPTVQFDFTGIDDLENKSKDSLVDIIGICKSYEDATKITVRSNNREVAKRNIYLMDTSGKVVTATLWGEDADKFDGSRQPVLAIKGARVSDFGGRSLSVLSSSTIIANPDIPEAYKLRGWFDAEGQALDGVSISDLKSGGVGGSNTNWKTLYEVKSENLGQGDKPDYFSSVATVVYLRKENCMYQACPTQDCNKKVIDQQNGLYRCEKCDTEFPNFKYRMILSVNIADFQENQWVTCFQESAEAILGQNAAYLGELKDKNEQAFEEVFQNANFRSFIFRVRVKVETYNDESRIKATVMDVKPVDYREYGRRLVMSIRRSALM
# UniProt Q96S38: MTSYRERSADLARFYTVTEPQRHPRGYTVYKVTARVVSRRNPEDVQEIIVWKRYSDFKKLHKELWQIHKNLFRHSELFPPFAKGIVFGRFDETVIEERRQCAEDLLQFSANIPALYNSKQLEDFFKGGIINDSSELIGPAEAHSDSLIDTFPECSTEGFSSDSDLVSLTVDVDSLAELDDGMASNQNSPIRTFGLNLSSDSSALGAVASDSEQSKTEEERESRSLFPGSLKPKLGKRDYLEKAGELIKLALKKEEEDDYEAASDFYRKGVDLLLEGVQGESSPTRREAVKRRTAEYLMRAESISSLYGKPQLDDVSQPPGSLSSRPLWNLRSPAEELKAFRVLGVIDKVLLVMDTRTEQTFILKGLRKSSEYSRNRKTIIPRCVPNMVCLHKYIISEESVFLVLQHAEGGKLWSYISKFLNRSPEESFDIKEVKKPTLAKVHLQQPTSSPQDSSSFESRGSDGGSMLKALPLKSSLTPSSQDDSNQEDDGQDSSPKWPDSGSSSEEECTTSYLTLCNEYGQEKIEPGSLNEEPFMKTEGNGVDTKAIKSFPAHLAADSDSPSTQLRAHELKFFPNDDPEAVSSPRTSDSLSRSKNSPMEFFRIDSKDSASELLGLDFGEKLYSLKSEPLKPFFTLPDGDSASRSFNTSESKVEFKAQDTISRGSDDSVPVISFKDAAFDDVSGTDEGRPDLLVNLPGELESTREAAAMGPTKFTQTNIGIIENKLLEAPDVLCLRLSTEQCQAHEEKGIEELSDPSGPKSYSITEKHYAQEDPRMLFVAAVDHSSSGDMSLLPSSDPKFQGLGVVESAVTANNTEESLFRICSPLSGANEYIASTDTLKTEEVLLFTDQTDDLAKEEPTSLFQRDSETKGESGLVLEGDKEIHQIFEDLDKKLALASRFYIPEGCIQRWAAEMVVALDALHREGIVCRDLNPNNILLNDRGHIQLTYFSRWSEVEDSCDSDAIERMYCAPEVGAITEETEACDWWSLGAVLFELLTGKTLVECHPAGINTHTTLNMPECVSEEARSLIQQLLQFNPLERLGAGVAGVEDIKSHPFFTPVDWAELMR
# UniProt Q01974, whole entry, looked up: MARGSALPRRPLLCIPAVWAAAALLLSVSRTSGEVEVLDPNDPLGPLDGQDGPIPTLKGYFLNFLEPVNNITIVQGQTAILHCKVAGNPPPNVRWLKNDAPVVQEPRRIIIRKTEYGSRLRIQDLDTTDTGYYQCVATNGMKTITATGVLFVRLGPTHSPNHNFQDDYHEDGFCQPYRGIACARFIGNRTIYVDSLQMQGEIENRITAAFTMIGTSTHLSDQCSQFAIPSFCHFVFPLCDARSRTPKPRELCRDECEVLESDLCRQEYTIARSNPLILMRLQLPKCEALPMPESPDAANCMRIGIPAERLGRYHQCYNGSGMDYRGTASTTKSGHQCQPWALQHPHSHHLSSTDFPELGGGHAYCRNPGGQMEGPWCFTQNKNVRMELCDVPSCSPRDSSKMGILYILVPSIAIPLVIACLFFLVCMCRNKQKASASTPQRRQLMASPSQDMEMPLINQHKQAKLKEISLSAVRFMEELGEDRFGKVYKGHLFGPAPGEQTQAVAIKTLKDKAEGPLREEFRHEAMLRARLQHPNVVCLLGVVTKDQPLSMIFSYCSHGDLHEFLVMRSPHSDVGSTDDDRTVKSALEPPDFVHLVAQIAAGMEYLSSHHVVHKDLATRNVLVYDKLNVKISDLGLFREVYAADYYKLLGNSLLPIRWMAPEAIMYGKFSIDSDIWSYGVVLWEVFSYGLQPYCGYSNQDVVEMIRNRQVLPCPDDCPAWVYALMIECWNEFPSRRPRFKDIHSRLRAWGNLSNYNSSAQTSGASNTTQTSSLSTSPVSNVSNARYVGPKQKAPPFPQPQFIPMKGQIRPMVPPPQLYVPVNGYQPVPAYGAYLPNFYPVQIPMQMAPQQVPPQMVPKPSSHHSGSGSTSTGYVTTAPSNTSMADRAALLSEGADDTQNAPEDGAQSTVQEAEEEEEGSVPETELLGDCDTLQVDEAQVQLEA
# UniProt Q7LG56, whole entry, looked up: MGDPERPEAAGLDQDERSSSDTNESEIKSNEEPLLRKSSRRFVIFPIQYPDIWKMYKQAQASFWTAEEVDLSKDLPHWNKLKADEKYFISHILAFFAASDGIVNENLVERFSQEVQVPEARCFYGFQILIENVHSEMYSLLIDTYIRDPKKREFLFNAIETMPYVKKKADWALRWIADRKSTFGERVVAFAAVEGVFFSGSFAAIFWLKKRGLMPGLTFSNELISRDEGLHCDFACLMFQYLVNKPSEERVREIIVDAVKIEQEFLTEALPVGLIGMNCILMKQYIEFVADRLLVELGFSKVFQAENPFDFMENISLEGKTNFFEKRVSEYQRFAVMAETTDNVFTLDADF
# UniProt P35244: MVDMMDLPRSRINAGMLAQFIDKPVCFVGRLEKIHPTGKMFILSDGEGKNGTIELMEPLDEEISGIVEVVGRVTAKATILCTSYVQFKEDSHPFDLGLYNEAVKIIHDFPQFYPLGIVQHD
# UniProt Q9BUL9: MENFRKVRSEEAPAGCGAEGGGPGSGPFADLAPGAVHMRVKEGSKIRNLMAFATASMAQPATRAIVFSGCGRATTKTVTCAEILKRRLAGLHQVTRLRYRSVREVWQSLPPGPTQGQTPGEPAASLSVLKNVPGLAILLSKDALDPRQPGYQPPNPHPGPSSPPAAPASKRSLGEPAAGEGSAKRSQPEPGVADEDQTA
# UniProt P15927: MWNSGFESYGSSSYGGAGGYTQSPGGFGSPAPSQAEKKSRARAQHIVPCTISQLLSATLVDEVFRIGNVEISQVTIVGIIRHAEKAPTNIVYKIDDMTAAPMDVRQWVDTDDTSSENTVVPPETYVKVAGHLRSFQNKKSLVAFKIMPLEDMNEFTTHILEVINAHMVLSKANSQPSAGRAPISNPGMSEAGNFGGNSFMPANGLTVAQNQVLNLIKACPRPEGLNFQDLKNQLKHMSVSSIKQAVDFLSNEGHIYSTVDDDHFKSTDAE
# UniProt Q9UBF6, whole entry, looked up: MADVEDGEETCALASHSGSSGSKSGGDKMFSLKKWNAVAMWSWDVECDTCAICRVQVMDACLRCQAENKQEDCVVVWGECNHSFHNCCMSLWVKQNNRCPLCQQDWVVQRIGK
# UniProt P62070: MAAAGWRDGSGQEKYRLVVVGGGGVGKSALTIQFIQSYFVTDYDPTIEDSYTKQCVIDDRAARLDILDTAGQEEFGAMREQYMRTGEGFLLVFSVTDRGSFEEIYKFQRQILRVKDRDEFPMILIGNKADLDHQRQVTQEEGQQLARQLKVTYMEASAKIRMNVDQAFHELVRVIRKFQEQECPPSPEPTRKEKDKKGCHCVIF
# UniProt Q92901: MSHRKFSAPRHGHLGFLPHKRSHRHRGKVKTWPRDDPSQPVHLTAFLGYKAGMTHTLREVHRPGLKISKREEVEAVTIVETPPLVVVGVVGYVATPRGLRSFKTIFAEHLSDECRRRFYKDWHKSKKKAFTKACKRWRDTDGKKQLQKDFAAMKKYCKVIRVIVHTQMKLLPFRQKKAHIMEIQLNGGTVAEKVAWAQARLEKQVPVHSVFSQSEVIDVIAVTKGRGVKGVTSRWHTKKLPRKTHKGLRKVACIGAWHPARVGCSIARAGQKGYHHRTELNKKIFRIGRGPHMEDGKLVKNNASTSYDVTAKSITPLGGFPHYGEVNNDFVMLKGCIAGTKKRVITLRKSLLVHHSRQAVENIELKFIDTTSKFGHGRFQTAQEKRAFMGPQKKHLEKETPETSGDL
# UniProt O75818: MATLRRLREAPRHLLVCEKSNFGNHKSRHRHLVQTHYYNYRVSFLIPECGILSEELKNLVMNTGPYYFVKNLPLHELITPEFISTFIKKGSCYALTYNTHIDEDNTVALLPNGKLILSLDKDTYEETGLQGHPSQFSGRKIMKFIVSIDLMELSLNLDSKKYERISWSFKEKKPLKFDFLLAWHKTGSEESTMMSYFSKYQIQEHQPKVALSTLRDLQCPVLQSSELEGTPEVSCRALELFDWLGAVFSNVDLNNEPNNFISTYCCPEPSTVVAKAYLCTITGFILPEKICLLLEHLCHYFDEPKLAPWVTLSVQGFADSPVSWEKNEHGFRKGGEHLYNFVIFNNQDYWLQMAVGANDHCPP
# UniProt Q8TA86: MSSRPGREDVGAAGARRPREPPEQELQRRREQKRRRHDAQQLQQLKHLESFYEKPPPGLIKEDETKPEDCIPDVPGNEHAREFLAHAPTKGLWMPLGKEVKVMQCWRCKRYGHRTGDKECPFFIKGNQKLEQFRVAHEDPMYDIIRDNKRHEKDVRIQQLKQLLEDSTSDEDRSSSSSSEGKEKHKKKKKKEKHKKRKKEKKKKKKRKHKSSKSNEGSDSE
# UniProt P60602: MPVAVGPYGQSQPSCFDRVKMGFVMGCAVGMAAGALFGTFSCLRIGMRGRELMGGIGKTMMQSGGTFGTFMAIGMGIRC
# This is one part of the list.
# Compound: NCC(=O)Nc1ccc(-n2nc(C(F)(F)F)cc2-c2ccc3c(ccc4ccccc43)c2)cc1
# Assay: log2 fold change, soluble protein after heating vs DMSO (PISA); higher = thermal stabilisation; K562 cells, 10 uM, 30 min; active = over 0.2 and 3.5 SD of the protein, either way, in both replicates (recomputed)
# Procedure, shortened: (§1)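 K562 cells (2×10^6 cells/mL) were treated with 10 μM compound for 30 min, and aliquots were heated for 3 min over 48°C-58°C. Pooled aliquots were extracted in PBS with 0.5% NP-40 at 4°C, and the supernatant after 21,000xg for 90 min was measured by TMTpro 16plex LC-MS/MS with channel sums equalised. Reported thermal stability, relative to control samples and from duplicates, is a log2 fold change.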
row,Target,log2 fold change
1,RPN2 (UniProt P04844),inactive: 0
2,RPA1 (UniProt P27694),inactive: -0.052
3,RPS6KC1 (UniProt Q96S38),inactive: 0.005
4,ROR2 (UniProt Q01974),inactive: -0.04
5,RPL7A (UniProt P62424),inactive: 0.341
6,RPL26L1 (UniProt Q9UNX3),inactive: 0.141
7,RRM2B isoform 6 (UniProt Q7LG56),inactive: 0.015
8,RPS6 (UniProt P62753),inactive: 0.345
9,"RPS7, A0A2R8Y623",inactive: 0.172
10,RPA3 (UniProt P35244),active: 0.371
11,RPP25 (UniProt Q9BUL9),inactive: 0.058
12,RPA2 isoform 3 (UniProt P15927),inactive: -0.084
13,RPS19 (UniProt P39019),inactive: 0.079
14,RPS20 isoform 2 (UniProt P60866),inactive: 0.037
15,RPL13A (UniProt P40429),inactive: 0.322
16,RNF7 (UniProt Q9UBF6),inactive: 0.219
17,RPL3 (UniProt P39023),inactive: 0.269
18,RPS16 (UniProt P62249),inactive: 0.043
19,RRAS2 isoform 4 (UniProt P62070),inactive: 0.038
20,RPS2 (UniProt P15880),inactive: 0.089
21,RPL3L (UniProt Q92901),inactive: 0.31
22,RPL22 (UniProt P35268),inactive: 0.074
23,RPS29 (UniProt P62273),inactive: 0.256
24,RPL19 (UniProt P84098),inactive: 0.187
25,RPL14 (UniProt P50914),inactive: 0.383
26,RPL35 (UniProt P42766),inactive: 0.127
27,RPL37 (UniProt P61927),inactive: 0.193
28,RPL37A (UniProt P61513),inactive: 0.39
29,RPP40 (UniProt O75818),inactive: 0.048
30,RPL8 (UniProt P62917),inactive: 0.382

# Compound: Nc1ccccc1NC(=O)c1ccc(CNC(=O)OCc2cccnc2)cc1 [entinostat]
# Assay: as above
# Procedure, shortened: as §1
row,Target,log2 fold change
1,RPN2 (UniProt P04844),inactive: 0.011
2,RPA1 (UniProt P27694),inactive: 0.06
3,RPS6KC1 (UniProt Q96S38),inactive: 0.07
4,ROR2 (UniProt Q01974),inactive: 0.004
5,RPL7A (UniProt P62424),inactive: -0.142
6,RPL26L1 (UniProt Q9UNX3),inactive: -0.063
7,RRM2B isoform 6 (UniProt Q7LG56),inactive: -0.031
8,RPS6 (UniProt P62753),inactive: -0.076
9,"RPS7, A0A2R8Y623",inactive: 0.18
10,RPA3 (UniProt P35244),inactive: 0.102
11,RPP25 (UniProt Q9BUL9),inactive: -0.043
12,RPA2 isoform 3 (UniProt P15927),inactive: 0.003
13,RPS19 (UniProt P39019),inactive: -0.06
14,RPS20 isoform 2 (UniProt P60866),inactive: -0.029
15,RPL13A (UniProt P40429),inactive: -0.144
16,RP9 (UniProt Q8TA86),inactive: -0.005

row,Target,log2 fold change
1,RNF7 (UniProt Q9UBF6),inactive: -0.211
2,RPL3 (UniProt P39023),inactive: -0.102
3,RPS16 (UniProt P62249),inactive: -0.043
4,RRAS2 isoform 4 (UniProt P62070),inactive: -0.059
5,RPS2 (UniProt P15880),inactive: -0.036
6,RPL3L (UniProt Q92901),inactive: -0.06
7,RPL22 (UniProt P35268),inactive: -0.078
8,RPS29 (UniProt P62273),inactive: -0.019
9,RPL19 (UniProt P84098),inactive: -0.08
10,RPL14 (UniProt P50914),inactive: -0.127
11,RPL35 (UniProt P42766),inactive: -0.103
12,ROMO1 (UniProt P60602),inactive: 0.011
13,RPL37 (UniProt P61927),inactive: -0.057
14,RPL37A (UniProt P61513),inactive: -0.129
15,RPP40 (UniProt O75818),inactive: -0.058
16,RPL8 (UniProt P62917),inactive: -0.178

# Compound: O=C(CCCCCCC(=O)Nc1ccccc1)NO [vorinostat]
# Assay: as above
# Procedure, shortened: as §1
row,Target,log2 fold change
1,RPN2 (UniProt P04844),inactive: 0.012
2,RPA1 (UniProt P27694),inactive: 0.106
3,RPS6KC1 (UniProt Q96S38),inactive: 0.134
4,ROR2 (UniProt Q01974),inactive: 0.003
5,RPL7A (UniProt P62424),inactive: -0.039
6,RPL26L1 (UniProt Q9UNX3),inactive: 0
7,RRM2B isoform 6 (UniProt Q7LG56),inactive: -0.058
8,RPS6 (UniProt P62753),inactive: 0.005
9,RPA3 (UniProt P35244),inactive: -0.005
10,RPP25 (UniProt Q9BUL9),inactive: 0.039
11,RPA2 isoform 3 (UniProt P15927),inactive: 0.06
12,RPS19 (UniProt P39019),inactive: -0.007
13,RPS20 isoform 2 (UniProt P60866),inactive: 0.012
14,RPL13A (UniProt P40429),inactive: -0.053
15,RP9 (UniProt Q8TA86),inactive: 0.04
16,RNF7 (UniProt Q9UBF6),inactive: -0.037

row,Target,log2 fold change
1,RPL3 (UniProt P39023),inactive: -0.03
2,RPS16 (UniProt P62249),inactive: 0.017
3,RRAS2 isoform 4 (UniProt P62070),inactive: -0.069
4,RPS2 (UniProt P15880),inactive: 0.001
5,RPL3L (UniProt Q92901),inactive: -0.071
6,RPL22 (UniProt P35268),inactive: 0.024
7,RPS29 (UniProt P62273),inactive: -0.068
8,RPL19 (UniProt P84098),inactive: 0.029
9,RPL14 (UniProt P50914),inactive: 0.017
10,RPL35 (UniProt P42766),inactive: 0.043
11,ROMO1 (UniProt P60602),inactive: -0.013
12,RPL37 (UniProt P61927),inactive: -0.04
13,RPL37A (UniProt P61513),inactive: -0.026
14,RPP40 (UniProt O75818),inactive: -0.064
15,RPL8 (UniProt P62917),inactive: -0.033
